The odorant receptor screen of Mainland et al. (2015)
“And” between values parts separate entries of the source, which are not always exact repeats. Identical values can stand only once. The list shows a part of the results. Each value is one well over the wells without odorant, computed here; the data are noisy.

Test system: OR2M4 clone 1053
Experiment: odorant receptor activation (CRE luciferase / Renilla) (fold of no-odor wells); higher = more activation
Settings: 100 µM

SMILES | odorant receptor activation
O=CCc1ccccc1 [phenyl acetaldehyde] | 1.14
CC(C)=CCCC(C)=CC=O [citral] | 1.11
CC1CCC(C(C)C)C(O)C1 (single isomer, unassigned; (+)) [(+)-menthol] | 3.69
c1cnccn1 [pyrazine] | 0.982
CCCCCCCCC=O [nonyl aldehyde] | 1.17
CC(=O)C(C)=O [diacetyl] | 0.956
CCCCCC(C)=O [2-heptanone] | 0.553
C=CC(C)(O)CCC=C(C)C (stereo not given) [linalool] | 1.62
CC(C)C=O [isobutyraldehyde] | 0.644
CCCC(=O)O [butyric acid] | 1.22
CC12C=CCC1C1CCC3CC(=O)CCC3(C)C1CC2 (stereo not given) [androstenone] | 1.8
CC(=O)c1ccccc1 [acetophenone] | 0.809
CCCCCCC=O [heptaldehyde] | 1.03 and 1.16
CC1COCc2cc3c(cc21)C(C)(C)C(C)C3(C)C (stereo not given) [galaxolide] | 2.07
CCCCCCCC=O [octyl aldehyde] | 1.33
CC(=O)OC(C)(C)C1CC=C(C)CC1 (stereo not given) [terpinyl acetate] | 1.42
CCCCCCCCOC(C)=O [octyl acetate] | 1.43
CCCCCCCCCCC=O [undecanal] | 1.04
CCCCCCCOC(C)=O [heptyl acetate] | 0.77
O=C1CCCCCCCCCCCCCCO1 [pentadecalactone] | 1.16
CC1=NC(C)SC1C (stereo not given) | 1.21
COc1cc(C)ccc1O [2-methoxy-4-methylphenol] | 1.37
COC(=O)c1ccccc1O [methyl salicylate] | 1.38
O=C1CCCCCCCCCCCC(=O)OCCO1 [ethylene brassylate] | 1.54
CCCCO [1-butanol] | 2.94
CC=Cc1ccc(O)c(OC)c1 [isoeugenol] | 0.639
CC(C)C(=O)O [isobutyric acid] | 0.922
CC(=O)OC1CC2CCC1(C)C2(C)C (stereo not given) [isobornyl acetate] | 0.507

Test system: OR2M5 clone 1167
Experiment: as above
Settings: 100 µM

SMILES | odorant receptor activation
O=CCc1ccccc1 [phenyl acetaldehyde] | 1.08
CC(C)=CCCC(C)=CC=O [citral] | 1.04
CC1CCC(C(C)C)C(O)C1 (single isomer, unassigned; (+)) [(+)-menthol] | 1.32
c1cnccn1 [pyrazine] | 0.994
CCCCCCCCC=O [nonyl aldehyde] | 0.913
CC(=O)C(C)=O [diacetyl] | 1.03
CCCCCC(C)=O [2-heptanone] | 1.25
C=CC(C)(O)CCC=C(C)C (stereo not given) [linalool] | 1.02
CC(C)C=O [isobutyraldehyde] | 1.4
CCCC(=O)O [butyric acid] | 1.08
CC12C=CCC1C1CCC3CC(=O)CCC3(C)C1CC2 (stereo not given) [androstenone] | 5.99
CC(=O)c1ccccc1 [acetophenone] | 1.06
CC1COCc2cc3c(cc21)C(C)(C)C(C)C3(C)C (stereo not given) [galaxolide] | 4.92
CCCCCCCC=O [octyl aldehyde] | 1.05
CC(=O)OC(C)(C)C1CC=C(C)CC1 (stereo not given) [terpinyl acetate] | 1.36
CCCCCCCCOC(C)=O [octyl acetate] | 0.932
CCCCCCCCCCC=O [undecanal] | 0.961
CCCCCCCOC(C)=O [heptyl acetate] | 1.04
O=C1CCCCCCCCCCCCCCO1 [pentadecalactone] | 1
CC1=NC(C)SC1C (stereo not given) | 0.745
COc1cc(C)ccc1O [2-methoxy-4-methylphenol] | 0.863
COC(=O)c1ccccc1O [methyl salicylate] | 0.796
O=C1CCCCCCCCCCCC(=O)OCCO1 [ethylene brassylate] | 1.96
CCCCO [1-butanol] | 0.958
CC=Cc1ccc(O)c(OC)c1 [isoeugenol] | 2.44
CC(C)C(=O)O [isobutyric acid] | 1.27
CC(=O)OC1CC2CCC1(C)C2(C)C (stereo not given) [isobornyl acetate] | 1.15
